Data as given in patent publication US5460942A, “The catalytic moiety of the glucose-6-phosphatase system: the gene and protein and related mutations” (The United States of America as represented by the …, priority 1993, dated 1995).

Assay: Latency: mannose-6-P phosphohydrolysis in intact versus detergent-disrupted microsomes
Format: biochemical

Row | Molecule | Latency (mannose-6-P phosphohydrolysis, (1-I/D) × 100, human study) | Latency (mannose-6-P phosphohydrolysis, (1-I/D) × 100, human study, listed as phG-6-Pase-1-transfected COS-1 cells) | Latency (mannose-6-P (5 mM) hydrolysis, (1-intact/disrupted) × 100, murine study)
1 | phG-6-Pase-1-COS: recombinant human G-6-Pase in microsomes of COS-1 cells transiently transfected with phG-6-Pase-1 cDNA (protein, UniProt P35575 1-357, looked up, in COS-1 microsomes, recombinant human G-6-Pase in microsomes of COS-1 cells transiently transfected with phG-6-Pase-1 cDNA) Glucose-6-phosphatase …: MEEGMNVLHDFGIQSTHYLQVNYQDSQDWFILVSVIADLRNAFYVLFPIWFHLQEAVGIKLLWVAVIGDWLNLVFKWILFGQRPYWWVLDTDYYSNTSVPLIKQFPVTCETGPGSPSGHAMGTAGVYYVMVTSTLSIFQGKIKPTYRFRCLNVILWLGFWAVQLNVCLSRIYLAAHFPHQVVAGVLSGIAVAETFSHIHSIYNASLKKYFLITFFLFSFAIGFYLLLKGLGVDLLWTLEKAQRWCEQPEWVHIDTTPFASLLKNLGTLFGLGLALNSSMYRESCKGKLSKWLPFRLSSIVASLVLLHVFDSLKPPSQVELVFYVLSFCKSAVVPLASVSVIPYCLAQVLGQPHKKSL | 28.2% | 28% | –
2 | pSVLmG-6-Pase-Transfacted COS: recombinant murine G-6-Pase in microsomes of COS-1 cells transfected with pSVLmG-6-Pase (protein, UniProt P35576 1-357, looked up, in COS-1 microsomes, recombinant murine G-6-Pase in microsomes of COS-1 cells transfected with pSVLmG-6-Pase) Glucose-6-phosphatase …: MEEGMNILHDFGIQSTRYLQVNYQDSQDWFILVSVIADLRNAFYVLFPIWFHLKETVGINLLWVAVVGDWFNLVFKWILFGQRPYWWVLDTDYYSNSSVPIIKQFPVTCETGPGSPSGHAMGAAGVYYVMVTSTLAIFRGKKKPTYGFRCLNVILWLGFWAVQLNVCLSRIYLAAHFPHQVVAGVLSGIAVAETFSHIRGIYNASLRKYCLITIFLFGFALGFYLLLKGLGVDLLWTLEKAKRWCERPEWVHLDTTPFASLFKNLGTLLGLGLALNSSMYRKSCKGELSKLLPFRFACIVASLVLLHLFDSLKPPSQVELIFYILSFCKSATVPFASVSLIPYCLARILGQTHKKSL | – | – | 50%
